Values from PubChem BioAssay AID686938 (Drosophila RNAi Screening Center, 2013).
Aim: 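Knock-downs reducing store-operated calcium influx in Drosophila cells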 (primary screen). Cells: Drosophila S2R+ cells. Reagent: long dsRNA against Drosophila genes, about 0.25 µg dsRNA per well, roughly 10,000 cells. Time to read-out: 5 days of knock-down before the calcium assay. Treatment: thapsigargin (SERCA pump blocker) to empty calcium stores; entry signal taken 4 min after adding it. Measurement: 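Duplicate raw fluo-4 intensities per well from a plate reader, at rest and four minutes after thapsigargin emptied calcium stores; entry-to-rest ratio filled for only some wells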. Reading the numbers: calcium entry signal: higher = stronger calcium signal after store depletion; resting calcium signal: higher = higher resting calcium signal. Active means: 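Called when the plate z-score of the entry-to-rest ratio, mean of duplicates, falls below −3; wells with low overall dye signal (Fmax z below −2) or more than five off-targets excluded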. Meaning of the calls: active = strongly reduced calcium entry; inactive = no strong reduction.
In all, the deposit lists about 23,000 reagents; below is an unselected part of those with a known target gene and a result. Over the whole deposit, 75 (0.33%) got an active call. 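Raw plate signals without normalisation; calls rest on plate z-scores that were not deposited; ratio present for only 364 wells.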 Names joined by + are all predicted targets of the reagent. Reagent sequences are not shown. The record does not give: the dose of the treatment.

no.	Target gene	amplicon	calcium entry signal, replicate 1 (fluorescence units)	calcium entry signal, replicate 2 (fluorescence units)	resting calcium signal, replicate 1 (fluorescence units)	resting calcium signal, replicate 2 (fluorescence units)	Call
1	Fkbp39 (FK506-binding protein 39kD)	DRSC16667	3.58e7	4.00e7	1.50e7	1.78e7	inactive
2	CG7342	DRSC16230	3.15e7	2.90e7	1.58e7	1.32e7	inactive
3	Or47b (Odorant receptor 47b)	DRSC07492	2.98e7	3.53e7	1.56e7	1.60e7	inactive
4	CG14655	DRSC12241	5.42e7	2.75e7	2.75e7	1.42e7	inactive
5	Gug (Grunge)	DRSC11179	2.64e7	5.16e7	1.28e7	2.06e7	inactive
6	CG1090	DRSC12150	4.69e7	5.21e7	2.18e7	3.63e7	inactive
7	CG1090	DRSC21604	3.08e7	3.18e7	1.67e7	1.43e7	inactive
8	CG5126	DRSC00680	4.98e7		2.70e7		inactive
9	CG33673	DRSC00084	4.74e7	3.23e7	2.33e7	1.55e7	inactive
10	pzg (putzig)	DRSC11848	3.10e7	4.14e7	1.63e7	2.81e7	inactive
11	CG13437	DRSC06397	2.91e7	3.42e7	1.44e7	1.47e7	inactive
12	Hcs (Holocarboxylase synthetase)	DRSC12070	3.37e7	5.35e7	1.62e7	2.37e7	inactive
13	Hcs (Holocarboxylase synthetase)	DRSC12256	4.13e7	2.59e7	2.03e7	1.32e7	inactive
14	SmydA-5 (SET and MYND domain containing, arthropod-specific, member 5)	DRSC04867	4.44e7	4.31e7	2.20e7	2.17e7	inactive
15	Nha1 (Na[+]/H[+] hydrogen antiporter 1)	DRSC02109	4.09e7		1.84e7		inactive
16	CG31373	DRSC16052	3.86e7	2.98e7	1.82e7	1.65e7	inactive
17	CG14644	DRSC12230	3.40e7	5.04e7	1.58e7	2.22e7	inactive
18	CG17636	DRSC20648	4.09e7	4.38e7	2.05e7	1.94e7	inactive
19	brat (brain tumor)	DRSC03497	4.70e7		2.37e7		inactive
20	Adss (Adenylosuccinate synthetase)	DRSC14162	3.83e7	3.41e7	1.76e7	1.55e7	inactive
21	CG2006 + Spase12	DRSC14316	3.22e7	4.05e7	1.66e7	1.75e7	inactive
22	Hap40 (Huntingtin-associated protein 40 kDa)	DRSC20085	3.68e7	3.82e7	1.70e7	1.87e7	inactive
23	ssp6 (short spindle 6)	DRSC08791	4.69e7	4.34e7	2.49e7	1.97e7	inactive
24	ssp6 (short spindle 6)	DRSC10677	2.49e7	4.78e7	1.37e7	2.07e7	inactive

Taken from above:
Value of Adss (Adenylosuccinate synthetase) [DRSC14162] in “calcium entry signal, replicate 2 (fluorescence units)”: 3.41e7
Value for Hcs (Holocarboxylase synthetase) [DRSC12070] under “Call”: inactive
